# Measured values reported in PubChem BioAssay AID1487 (National Center for Advancing Translational Sciences (NCATS), 2009).
# Several values for one entry are separate records, joined by “and”; a condition that tells them apart may be missing. Equal values may be shown once. The list shows a part of the results. Further columns of the screen follow, without active or inactive calls. Most of these compounds were active or inconclusive in the main read-out, so they are no random draw. The note in brackets gives the kind of curve behind each potency; many fits are weak.
# Assay: qHTS Assay for Modulators of Lamin A Splicing
# Conditions: HeLa LMNA splicing GFP/RFP minigene ratio, 48 h
# Method in brief: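 S3 HeLa stable clones carrying a lamin A-EGFP splicing minigene plus DsRed2 were seeded at 600 cells/well in Opti-MEM with 2% FBS, pin-dosed and incubated 48 h at 37°C. Acumen cytometry (488 nm) gave the GFP/RFP total-intensity ratio.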
# [1] = measured here: GFP splicing reporter channel
# [2] = measured here: RFP viability control channel
smiles,measurement,setting,value
O=S(=O)(NCCNC/C=C/c1ccc(Br)cc1)c1cccc2cnccc12,AC50,[1],"11.2 µM [falling, partial curve]"
same,AC50,[2],"12.6 µM [falling, partial curve]"
O=C(CCCCCn1c(=O)[nH]c2ccccc2c1=O)N1CCN(c2cccc(C(F)(F)F)c2)CC1,AC50,[2],"0.0126 µM [falling, full curve, poor fit]"
CN(NC(=O)c1ccccc1)c1nc2ccccc2nc1C(F)(F)F,AC50,[2],"1.12 µM [rising, partial curve, poor fit]"
OCC1OC(n2cnc3c(=S)nc[nH]c32)C(O)C1O (configuration not stated),AC50,[1],"1.41 µM [rising, full curve] and 100 nM [rising, full curve, poor fit]"
same,AC50,[2],"891 nM [rising, full curve] and 25.1 nM [rising, full curve]"
Cc1ccc(NCCC(=O)c2cccc([N+](=O)[O-])c2)c(C)c1,AC50,[2],"3.98 µM [rising, full curve, poor fit]"
C[C@H](NC(=O)/C(C#N)=C/c1ccc(O)c(O)c1)c1ccccc1,AC50,[1],"12.6 µM [falling, partial curve, poor fit]"
FC(F)(F)c1cc(-c2ccco2)nc(NCc2ccc(Cl)cc2)n1,AC50,[1],"11.2 µM [rising, partial curve]"
O=c1[nH][nH]c(-c2ccccc2O)c1C(C[N+](=O)[O-])c1ccc(Cl)cc1Cl (configuration not stated),AC50,[1],"0.708 µM [rising, partial curve]"
same,AC50,[2],"0.316 µM [rising, partial curve, poor fit]"
Cc1cc(C)c[n+](CC(=O)c2ccc(-c3ccccc3)cc2)c1,AC50,[1],"8.91 µM [rising, partial curve, poor fit]"
same,AC50,[2],"8.91 µM [rising, partial curve, poor fit]"
Cc1nc(NC(=O)CC(C)C)sc1-c1csc(Nc2ccc(Cl)cc2Cl)n1,AC50,[2],"10 µM [rising, single point]"
COc1ccc(/C=C2\N=C(C)N(c3ccc4ccccc4c3)C2=O)cc1OC,AC50,[1],"0.794 µM [rising, full curve, poor fit]"
same,AC50,[2],"0.708 µM [rising, full curve, poor fit]"
CCCCC(NS(=O)(=O)c1ccc(OC)cc1)C(=O)O (configuration not stated),AC50,[1],"35.5 µM [rising, single point]"
Cn1ccc2cc(S(=O)(=O)N3CCCC(C(=O)NCc4ccccc4F)C3)ccc21 (configuration not stated),AC50,[1],"14.1 µM [falling, partial curve]"
CC1CN(CCCCOc2ccc(F)cc2)CC(C)O1 (configuration not stated),AC50,[1],"0.0398 µM [rising, partial curve, poor fit]"
COc1cccc(CN2CCN(c3nc4nonc4nc3NC3CC3)CC2)c1,AC50,[1],"0.0126 µM [falling, full curve, poor fit]"
COc1ccc(CN(C)CC(=O)Nc2ccccc2-c2ccccc2)c(OC)c1,AC50,[1],"14.1 µM [rising, partial curve]"
same,AC50,[2],"14.1 µM [rising, single point]"
Cc1nnc(NC(=O)c2ccc(S(=O)(=O)N3CCCCCC3)cc2)o1,AC50,[1],"10 µM [falling, partial curve, poor fit]"
COc1cccc(C(=O)COc2ccc3c(C)c(Cc4ccccc4)c(=O)oc3c2)c1,AC50,[2],"35.5 µM [rising, single point]"
Cc1ccc(F)cc1NC(=O)CCOc1ccccc1,AC50,[2],"20 µM [rising, single point]"
Cn1c(=O)c2c(nc(NCc3ccco3)n2CCc2ccccc2)n(C)c1=O,AC50,[2],"12.6 µM [rising, partial curve]"
COc1cc(C(=O)N/N=C(\C)c2ccc3c(c2)OCO3)cc(OC)c1OC,AC50,[2],"3.55 µM [falling, single point]"
COCCNc1ncncc1-c1ccccc1OC,AC50,[2],"17.8 µM [falling, partial curve]"
CC(CCc1ccccc1)NC(=O)C1CCN(c2nnc(-n3cccc3)s2)CC1 (configuration not stated),AC50,[2],"12.6 µM [rising, partial curve]"
CN(Cc1ccccc1)c1ncnc2ccc(Br)cc12,AC50,[1],"15.8 µM [rising, single point]"
same,AC50,[2],"35.5 µM [rising, single point]"
O=C(CN1C(=O)C2CC=CCC2C1=O)Nc1nc2ccc(F)cc2s1 (configuration not stated),AC50,[1],"0.355 µM [rising, partial curve]"
COc1ccccc1NC(=O)c1cc(Sc2nncn2C)nc2ccccc12,AC50,[2],"3.98 µM [rising, partial curve, poor fit]"
COc1cc(OC)c2c(c1)S(=O)(=O)C(c1ccccc1)=C2N,AC50,[2],"0.0224 µM [falling, full curve, poor fit]"
Nc1ccc2nc(-c3ccc(N)c(Cl)c3)[nH]c2c1,AC50,[2],"5.01 µM [rising, partial curve]"
O=C(NCc1cccs1)c1cc(-c2ccncc2)nc2ccc(Br)cc12,AC50,[1],"35.5 µM [rising, single point]"
CCOc1cc(S(=O)(=O)Nc2ccc(CC)cc2)ccc1Cl,AC50,[2],"12.6 µM [rising, partial curve]"
CC(=O)N1CCCc2cc(S(=O)(=O)Nc3ccc(OC(F)(F)F)cc3)ccc21,AC50,[1],"0.794 µM [rising, single point]"
same,AC50,[2],"0.501 µM [rising, full curve, poor fit]"
Cn1c(=O)[nH]c2cc(Cl)cnc21,AC50,[1],"35.5 µM [falling, single point]"
same,AC50,[2],"35.5 µM [falling, single point]"
Cc1cc([N+](=O)[O-])nn1CC(=O)Nc1ccc(Cc2ccncc2)cc1,AC50,[2],"31.6 µM [rising, single point]"
CCc1ccc2c(Cl)c(C(=O)N/N=C/c3c[nH]c4ccccc34)sc2c1,AC50,[1],"14.1 µM [falling, single point]"
same,AC50,[2],"20 µM [falling, single point]"
COc1ccc(-c2cc(C(F)F)n3ncc(C(=O)N4CCc5ccccc54)c3n2)cc1,AC50,[1],"0.282 µM [falling, full curve]"
same,AC50,[2],"0.316 µM [falling, full curve]"
COc1cc(/C=N/NC(=O)c2c(C)nnn2-c2nonc2N)ccc1O,AC50,[2],"3.55 µM [rising, full curve]"

# Part of the list above, tab-delimited.
smiles	measurement	setting	value
O=S(=O)(NCCNC/C=C/c1ccc(Br)cc1)c1cccc2cnccc12	AC50	[1]	11.2 µM [falling, partial curve]
CCOc1cc(S(=O)(=O)Nc2ccc(CC)cc2)ccc1Cl	AC50	[2]	12.6 µM [rising, partial curve]
